Measurements published in PubChem BioAssay AID602391 (National Center for Advancing Translational Sciences (NCATS), 2012).
Inconclusive means that the source gave no clear call. Such entries were picked first, then a sample of the others. Where the call is inconclusive, the potency comes from a doubtful curve fit. The source made the active and inactive calls. Calls follow the shape of the dose curve; as a rule, active = well fitted inhibition curve with a large enough effect; inconclusive = small, poorly fitted or top-dose-only effect; inactive = flat fitted curve, though single readings scatter.

test: qHTS Assay for Inhibitors of Bacillus subtilis Sfp phosphopantetheinyl transferase (PPTase): SAR in hGST A1-1; details: hGST A1-1 enzyme activity counter-screen; series mostly up to 114 µM; activity change, negative = inhibition: at the top concentration
Source text: The covalent attachment of a phosphopantetheinyl (4'-PP) arm to a variety of synthases and other proteins is a key posttranslational protein modification. The 4'-PP is installed on the proteins post-translationally from coenzyme A (CoA) on a conserved serine residue by action of phosphopantetheinyl transferase (PPTase) enzymes. Phosphopantetheinylation is essential for synthase activity, and removal of the PPTase gene precludes natural product synthesis in microorganisms, or in the case of fatty acid biosynthesis, renders the organism unviable. PPTase enzymes belong to a distinct structural superfamily. Within bacteria, these enzymes are grouped into two classes based upon primary structure, the AcpS-Type and Sfp-Type PPTases.
Sfp-type PPTases, corresponding to an activator of surfactin production in Bacillus subtilis, are responsible for modifying type I polyketide and nonribosomal peptide synthases of prokaryotes. Sfp-type PPTases are responsible for the activation of a variety of pathogen-associated virulence factors. Among these compounds are toxins such as mycolactone from Mycobacterium ulcerans, siderophores such as vibriobactin from Vibrio cholerae or mycobactin from Mycobacterium tuberculosis, as well as the mycolic acids which form the waxy cell wall of Mycobacteria. The biosyntheses of these natural products are considered attractive targets for drug design.
In search of small molecule Sfp-PPTase inhibitors, a fluorescence quenching assay was developed for detection of Bacillus subtilis Sfp-PPTase enzymatic activity in a miniaturized high-throughput format. The consensus ybbr acceptor peptide […] was N-terminally labeled with Black Hole Quencher-2 (BHQ-2) and used in combination with rhodamine-labeled coenzyme A as a co-substrate.
This assay sought to assess the promiscuity of test articles with an unrelated target enzyme. The appropriate target for this work was determined to be human glutathione-S-transferase, an enzyme responsible for detoxifying modifying electrophilic xenobiotics to enhance their excretion. Inhibitory activity with this enzyme in the contexts of this project is indicative of nonspecific behavior.
NIH Chemical Genomics Center [NCGC]
NIH Molecular Libraries Probe Centers Network [MLPCN]
Assay Submitter (PI): Michale Burkart, University of California, San Diego
Reaction buffer consisted of 50 mM HEPES pH 7.5 with 0.01% Tween 20, and 133 uM glutathione (GSH, final assay concentration 100 uM). Reagent solution was transferred to a 1536-well solid black Greiner plate ( 3 uL, 6.67 nM human glutathione-S-transferase (hGST) A1-1 in reaction buffer to columns 1 - 2, 5 to 48, or buffer sans enzyme to columns 3 and 4). Control (Reactive Blue 2) and test compounds (46 nL) were transferred to the plate via Kalypsys pintool and incubated at room temperature (15 min). Reactions were initiated by the addition substrate PBI 3773 (1 uL, providing a final assay concentration of 40 uM), the plates centrifuged (15 sec, 1,000 rpm) and then incubated at room temperature (40 minutes). Luciferase Detection Reagent was then added (4 uL, Promega Corporation), and the plate read in Luminescence mode on a ViewLux High-throughput CCD imager following a short room temperature incubation (15 min).

Row | Compound | Potency | activity change, negative = inhibition
1 | Cc1cc(C)nc(NC(=S)N2CCN(c3ncccc3C#N)CC2)c1 | inconclusive: 3.32 µM [inhibitor, full curve] | –
2 | FC(F)(F)c1cccc(N2CCN(C(=S)Nc3cc(C(F)(F)F)ccn3)CC2)c1 | inconclusive: 74.4 µM [inhibitor, partial curve] | –
3 | COc1cccc(NC(=S)N2CCN(c3cc(Cl)cc(Cl)c3)CC2)n1 | active: 1.87 µM | –
4 | Cc1ccnc(NC(=S)N2CCN(c3cccc(N(C)C)c3)CC2)c1 | inconclusive: 66.3 µM [inhibitor, single point] | –
5 | Cc1nc(CN(C)c2ncnc3ccc(-c4ccc5[nH]ncc5c4)cc23)cs1 | inconclusive: 52.7 µM [inhibitor, single point] | –
6 | Cc1ccnc(NC(=S)N2CCCN(c3cccc(C(F)(F)F)c3)CC2)c1 | inconclusive: 3.73 µM [inhibitor, partial curve, poor fit] | –
7 | Cc1ccnc(NC(=S)N[C@@H]2CCN(c3cccc(C(F)(F)F)c3)C2)c1 | inconclusive: 46.9 µM [inhibitor, partial curve] | –
8 | Cc1ccnc(NC(=S)N2CCCc3ccc(C(F)(F)F)cc32)c1 | inconclusive: 46.9 µM [inhibitor, partial curve, poor fit] | –
9 | Cc1ccnc(NC(=S)N2CC3CN(c4cccc(C(F)(F)F)c4)CC3C2)c1 (centres undefined) | inconclusive: 59.1 µM [inhibitor, partial curve] | –
10 | CSC(Cc1ccc(Cl)cc1)C(=O)Nc1ccc(Cl)cc1C(=O)O (centres undefined) | inconclusive: 46.9 µM [inhibitor, partial curve] | –
11 | Cc1ccnc(NC(=S)Nc2cccc(C(F)(F)F)c2)c1 | active: 0.21 µM | –
12 | Cc1ccnc(NC(=S)N2CCN(c3cc(C(F)(F)F)cc(C(F)(F)F)c3)CC2)c1 | inconclusive: 52.7 µM [inhibitor, single point] | –
13 | FC(F)(F)c1cccc(N2CCN(C(=S)Nc3nccc4ccccc34)CC2)c1 | inactive | –
14 | Cc1cc(C)nc(NC(=S)N2CCN(c3ccc(Cl)cc3Cl)CC2)c1 | active: 2.35 µM | –
15 | Cc1cc(C)nc(NC(=S)N2CC3CN(c4ccc(Cl)cc4C(F)(F)F)CC3C2)c1 (centres undefined) | inconclusive: 1.32 µM [inhibitor, full curve] | –
16 | COc1ccnc(NC(=S)N2CCN(c3ncc(C(F)(F)F)cc3Cl)CC2)c1 | – | inactive: -13.9%
17 | COc1ccnc(NC(=S)N2CCN(c3cccc(Cl)c3Cl)CC2)c1 | – | inactive: -0.46%
18 | Cc1cc(C)nc(NC(=S)N2CCN(c3ccc([N+](=O)[O-])cc3Cl)CC2)c1 | – | inactive: 0.445%
19 | S=C(Nc1cc(Cl)ccn1)N1CCN(c2cccc(Cl)c2Cl)CC1 | – | inactive: -5.72%
20 | Cc1cc(C)nc(NC(=S)N2CCN(c3ccc(Cl)c(Cl)c3)CC2)c1 | inconclusive: 1.67 µM [inhibitor, full curve, poor fit] | –
21 | Cc1ccnc(N=C(N)N2CCN(c3cccc(C(F)(F)F)c3)CC2)c1 | inconclusive: 59.1 µM [inhibitor, partial curve] | –
22 | COc1cccc(NC(=S)N2CCN(c3ccc(Cl)c(Cl)c3)CC2)n1 | inconclusive: 59.1 µM [inhibitor, partial curve, poor fit] | –
23 | Cc1cc(C)nc(NC(=S)N2CCN(c3ccc(F)c(F)c3F)CC2)c1 | – | inactive: -2.9%
24 | CC(Cc1ccccc1)C(=O)Nc1ccc(Cl)cc1C(=O)O (centres undefined) | inconclusive: 46.9 µM [inhibitor, partial curve, poor fit] | –

Record cards, as listed above.
`Cc1cc(C)nc(NC(=S)N2CCN(c3ccc(Cl)cc3Cl)CC2)c1` as listed: Potency: active: 2.35 µM
`Cc1ccnc(N=C(N)N2CCN(c3cccc(C(F)(F)F)c3)CC2)c1` as listed: Potency: inconclusive: 59.1 µM [inhibitor, partial curve]
